# Laboratory results published in article PMC8037196.
# Chains of the proteins cited; added tags and fusions are not shown.
# UniProt Q8TD43: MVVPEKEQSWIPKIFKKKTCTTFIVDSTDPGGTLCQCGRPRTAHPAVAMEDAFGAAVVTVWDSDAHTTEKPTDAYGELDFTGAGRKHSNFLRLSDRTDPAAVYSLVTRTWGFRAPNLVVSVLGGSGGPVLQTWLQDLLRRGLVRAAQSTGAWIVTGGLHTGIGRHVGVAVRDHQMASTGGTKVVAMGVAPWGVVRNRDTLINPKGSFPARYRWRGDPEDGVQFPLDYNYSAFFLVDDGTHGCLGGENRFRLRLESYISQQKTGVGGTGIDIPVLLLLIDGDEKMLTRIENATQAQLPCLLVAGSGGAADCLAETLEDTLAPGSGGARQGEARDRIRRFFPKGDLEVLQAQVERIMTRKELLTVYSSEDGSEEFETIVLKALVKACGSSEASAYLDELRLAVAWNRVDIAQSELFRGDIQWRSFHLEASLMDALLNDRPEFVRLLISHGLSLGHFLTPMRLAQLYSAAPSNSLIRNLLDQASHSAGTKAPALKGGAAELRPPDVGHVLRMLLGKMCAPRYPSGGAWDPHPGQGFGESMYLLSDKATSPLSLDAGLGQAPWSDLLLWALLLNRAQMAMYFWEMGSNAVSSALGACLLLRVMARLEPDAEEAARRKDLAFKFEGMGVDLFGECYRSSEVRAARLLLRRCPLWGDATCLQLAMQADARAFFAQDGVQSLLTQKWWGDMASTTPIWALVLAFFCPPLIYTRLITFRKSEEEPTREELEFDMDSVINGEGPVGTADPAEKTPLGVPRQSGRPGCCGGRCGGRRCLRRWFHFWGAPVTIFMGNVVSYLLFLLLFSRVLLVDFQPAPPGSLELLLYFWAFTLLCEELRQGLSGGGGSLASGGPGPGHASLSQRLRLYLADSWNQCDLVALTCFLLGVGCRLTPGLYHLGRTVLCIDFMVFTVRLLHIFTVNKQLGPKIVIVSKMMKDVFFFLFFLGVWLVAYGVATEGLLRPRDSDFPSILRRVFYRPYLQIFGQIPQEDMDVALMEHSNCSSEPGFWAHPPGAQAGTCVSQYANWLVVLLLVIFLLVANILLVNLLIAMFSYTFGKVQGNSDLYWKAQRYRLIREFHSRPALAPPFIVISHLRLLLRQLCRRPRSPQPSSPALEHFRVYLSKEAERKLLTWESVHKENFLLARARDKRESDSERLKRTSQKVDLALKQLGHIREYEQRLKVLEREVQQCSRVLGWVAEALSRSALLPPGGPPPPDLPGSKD
# These are yes or no findings as the source states them, for the method shown. In cells and extracts the contact can be indirect. Some binding calls cover weakened binding; strength is not graded here.
# Target: FLAG-tagged human-Nav1.5 (human) (UniProt Q14524)
# Test: co-IP; HEK-293 cells co-transfected, lysed 48 h after transfection; 2 mg total protein incubated with anti-FLAG Dynabeads for 1 h at 4 °C, washed with lysis buffer, eluted into sample buffer, Western blot
row,Molecule,binding
1,human-TRPM4 (from UniProt Q8TD43 1-1214),binds
2,"TRPM5 (protein, UniProt Q9NZQ8 1-1165) MQDVQGPRPGSPGDAEDRRELGLHRGEVNFGGSGKKRGKFVRVPSGVAPSVLFDLLLAEWHLPAPNLVVSLVGEEQPFAMKSWLRDVLRKGLVKAAQSTGAWILTSALRVGLARHVGQAVRDHSLASTSTKVRVVAVGMASLGRVLHRRILEEAQEDFPVHYPEDDGGSQGPLCSLDSNLSHFILVEPGPPGKGDGLTELRLRLEKHISEQRAGYGGTGSIEIPVLCLLVNGDPNTLERISRAVEQAAPWLILVGSGGIADVLAALVNQPHLLVPKVAEKQFKEKFPSKHFSWEDIVRWTKLLQNITSHQHLLTVYDFEQEGSEELDTVILKALVKACKSHSQEPQDYLDELKLAVAWDRVDIAKSEIFNGDVEWKSCDLEEVMVDALVSNKPEFVRLFVDNGADVADFLTYGRLQELYRSVSRKSLLFDLLQRKQEEARLTLAGLGTQQAREPPAGPPAFSLHEVSRVLKDFLQDACRGFYQDGRPGDRRRAEKGPAKRPTGQKWLLDLNQKSENPWRDLFLWAVLQNRHEMATYFWAMGQEGVAAALAACKILKEMSHLETEAEAARATREAKYERLALDLFSECYSNSEARAFALLVRRNRCWSKTTCLHLATEADAKAFFAHDGVQAFLTRIWWGDMAAGTPILRLLGAFLCPALVYTNLITFSEEAPLRTGLEDLQDLDSLDTEKSPLYGLQSRVEELVEAPRAQGDRGPRAVFLLTRWRKFWGAPVTVFLGNVVMYFAFLFLFTYVLLVDFRPPPQGPSGPEVTLYFWVFTLVLEEIRQGFFTDEDTHLVKKFTLYVGDNWNKCDMVAIFLFIVGVTCRMLPSAFEAGRTVLAMDFMVFTLRLIHIFAIHKQLGPKIIVVERMMKDVFFFLFFLSVWLVAYGVTTQALLHPHDGRLEWIFRRVLYRPYLQIFGQIPLDEIDEARVNCSTHPLLLEDSPSCPSLYANWLVILLLVTFLLVTNVLLMNLLIAMFSYTFQVVQGNADMFWKFQRYNLIVEYHERPALAPPFILLSHLSLTLRRVFKKEAEHKREHLERDLPDPLDQKVVTWETVQKENFLSKMEKRRRDSEGEVLRKTAHRVDFIAKYLGGLREQEKRIKCLESQINYCSVLVSSVADVLAQGGGPRSSQHCGEGSQLVAADHRGGLDGWEQPGAGQPPSDT",no binding
